Drug screen on melanoma cell lines: apoptosis marker

From a melanoma drug combination screen (doi:10.1371/journal.pone.0140310); values rounded.

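Human melanoma cell lines in 1,536-well plates were treated with two drugs together for 72 h, then fixed, stained and imaged. Each value is the cleaved-PARP-positive fraction of nuclei relative to DMSO-treated wells, in %, so that 100 equals the control and higher values mean more apoptosis. Concentrations were fixed for each drug; these are the higher of two levels. The file gives one value for each pair and line, without errors, so small differences may be noise. The marker varies much from line to line, for technical or biological reasons.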 Only some of the drugs and lines screened are listed, without regard to their results. An entry leaves out what has no value listed here. A dash means that no value is listed here.

All values are for the listed drug together with vincristine (0.5 nM): CC[C@]1(O)C[C@H]2CN(CCc3c([nH]c4ccccc34)[C@@](C(=O)OC)(c3cc4c(cc3OC)N(C=O)[C@H]3[C@@](O)(C(=O)OC)[C@H](OC(C)=O)[C@]5(CC)C=CCN6CC[C@]43[C@@H]65)C2)C1

Drugs:
GW0742: Cc1cc(SCc2sc(-c3ccc(C(F)(F)F)c(F)c3)nc2C)ccc1OCC(=O)O at 10000 nM
BMS-536924: Cc1cc(N2CCOCC2)cc2[nH]c(-c3c(NC[C@@H](O)c4cccc(Cl)c4)cc[nH]c3=O)nc12 at 1000 nM
cediranib: COc1cc2c(Oc3ccc4[nH]c(C)cc4c3F)ncnc2cc1OCCCN1CCCC1 at 2000 nM
stibogluconate: O=C(O)[C@@H]1[O][Sb](=[O])([O][Sb]2(=[O])[O][C@H]([C@H](O)CO)[C@H](O)[C@H](C(=O)O)[O]2)[O][C@H]([C@H](O)CO)[C@@H]1O (some centres unmarked) at 10000 nM
KU-0063794: COc1ccc(-c2ccc3c(N4CCOCC4)nc(N4C[C@@H](C)O[C@@H](C)C4)nc3n2)cc1CO at 100 nM
JZL184: O=C(Oc1ccc([N+](=O)[O-])cc1)N1CCC(C(O)(c2ccc3c(c2)OCO3)c2ccc3c(c2)OCO3)CC1 at 5000 nM
CX-4945: O=C(O)c1ccc2c(c1)nc(Nc1cccc(Cl)c1)c1ccncc12 at 2000 nM
GW441756: Cn1cc(/C=C2\C(=O)Nc3cccnc32)c2ccccc21 at 2000 nM
indole-3-carbinol: OCc1c[nH]c2ccccc12 at 4000 nM
GW9662: O=C(Nc1ccccc1)c1cc([N+](=O)[O-])ccc1Cl at 10000 nM
MK-1775: C=CCn1c(=O)c2cnc(Nc3ccc(N4CCN(C)CC4)cc3)nc2n1-c1cccc(C(C)(C)O)n1 at 100 nM
fingolimod: CCCCCCCCc1ccc(CCC(N)(CO)CO)cc1 at 10000 nM
GSK0660: COC(=O)c1sccc1S(=O)(=O)Nc1ccc(Nc2ccccc2)cc1OC at 5000 nM
AZD7762: NC(=O)Nc1cc(-c2cccc(F)c2)sc1C(=O)N[C@H]1CCCNC1 at 100 nM
NVP-BEZ235: Cn1c(=O)n(-c2ccc(C(C)(C)C#N)cc2)c2c3cc(-c4cnc5ccccc5c4)ccc3ncc21 at 20 nM
SNS-032: CC(C)(C)c1cnc(CSc2cnc(NC(=O)C3CCNCC3)s2)o1 at 50 nM
PLX4720: CCCS(=O)(=O)Nc1ccc(F)c(C(=O)c2c[nH]c3ncc(Cl)cc23)c1F at 400 nM
ruxolitinib: N#CC[C@H](C1CCCC1)n1cc(-c2ncnc3[nH]ccc23)cn1 at 5000 nM

| Second drug | G-361 | A101D | MEL-HO | WM451Lu | WM3619 | 501mel | IPC-298 | RVH-421 | MZ2-MEL | COLO 829 | COLO 792 | RPMI-7951 | MeWo | WM1716 | SK-MEL-5 |
|---|---|---|---|---|---|---|---|---|---|---|---|---|---|---|---|
| BMS-536924 | 173 | 961 | 45.8 | 558 | 345 | - | 78.8 | 115 | 608 | 325 | 178 | 319 | 534 | 922 | 1070 |
| CX-4945 | 301 | 94.5 | 193 | 134 | 182 | - | 86.8 | 283 | 663 | 245 | 100 | 653 | 50.7 | 283 | 135 |
| GW0742 | 124 | 483 | 127 | 2040 | 342 | 88.7 | 91.5 | 96.8 | 121 | 147 | 75.9 | 352 | 656 | 318 | 178 |
| cediranib | 59.9 | 160 | 60.7 | 144 | 124 | - | 59.4 | 100 | 83.8 | 82.2 | 110 | 157 | 150 | 681 | 276 |
| GSK0660 | 326 | 299 | 91.5 | 2180 | 246 | - | 118 | 133 | - | 361 | 55.0 | 647 | 458 | 1620 | 566 |
| fingolimod | 13800 | 973 | 1260 | 525 | 2440 | - | 564 | 870 | 18800 | 371 | 9560 | 1550 | 130 | 1890 | 103 |
| NVP-BEZ235 | 120 | 148 | 56.5 | 406 | 211 | - | 165 | 352 | - | 24.1 | 120 | 272 | 28.6 | 133 | 184 |
| SNS-032 | 114 | 68.9 | 31.7 | 2060 | 121 | - | 167 | 45.4 | 215 | 193 | 76.6 | 452 | 278 | 1360 | 76.9 |
| PLX4720 | 283 | 119 | 262 | 208 | 147 | - | 87.3 | 73.3 | 62.9 | 156 | 56.4 | 148 | 111 | 61.1 | 225 |
| MK-1775 | 236 | 236 | 84.8 | 532 | 282 | - | 112 | 80.8 | 320 | 117 | 107 | 535 | 489 | 278 | 404 |
| ruxolitinib | 160 | 98.1 | 42.6 | 186 | 148 | - | 45.7 | 128 | 229 | 131 | 105 | 195 | 137 | 289 | 208 |
| JZL184 | 139 | 302 | 72.1 | 3130 | 230 | 138 | 79.3 | 309 | 129 | 142 | 124 | 202 | 527 | 625 | 583 |
| KU-0063794 | 97.9 | 336 | 82.7 | 1530 | 213 | 157 | 159 | 46.5 | 94.8 | 94.8 | 65.8 | 141 | 240 | 115 | 92.8 |
| GW9662 | 489 | 834 | 326 | 4900 | 248 | 194 | 111 | 68.6 | 794 | 441 | 217 | 602 | 397 | 2160 | 822 |
| GW441756 | 279 | 171 | 71.7 | 2050 | 119 | 55.5 | 190 | 113 | 71.4 | 127 | 51.3 | 216 | 99.3 | 283 | 132 |
| indole-3-carbinol | 83.8 | 192 | 75.7 | 296 | 150 | - | 33.2 | 60.9 | 88.6 | 162 | 118 | 174 | 146 | 133 | 174 |
| stibogluconate | 92.7 | 73.1 | 65.2 | 89.2 | 91.4 | - | 40.3 | 44.8 | 74.8 | 94.6 | 70.5 | 64.8 | 106 | 92.5 | 97.8 |
| AZD7762 | 178 | 197 | 83.9 | 2770 | 507 | - | 129 | 57.5 | 146 | 215 | 235 | 225 | 283 | 1680 | 385 |

The first 2 entries again:

{"second drug": "BMS-536924", "G-361": 173, "A101D": 961, "MEL-HO": 45.8, "WM451Lu": 558, "WM3619": 345, "IPC-298": 78.8, "RVH-421": 115, "MZ2-MEL": 608, "COLO 829": 325, "COLO 792": 178, "RPMI-7951": 319, "MeWo": 534, "WM1716": 922, "SK-MEL-5": 1070}
{"second drug": "CX-4945", "G-361": 301, "A101D": 94.5, "MEL-HO": 193, "WM451Lu": 134, "WM3619": 182, "IPC-298": 86.8, "RVH-421": 283, "MZ2-MEL": 663, "COLO 829": 245, "COLO 792": 100, "RPMI-7951": 653, "MeWo": 50.7, "WM1716": 283, "SK-MEL-5": 135}